From publication PMC7002340
Results are given in words; binding and its absence hold for the method and conditions named. Binding seen in cells or lysates may run through a third protein. These calls come from enrichment with a bait or labelling near it, and not all partners need be listed. No binding means not detected with the bait.

Protein sequences, listed by entry. Tags and fused reporters are not part of them. Lines headed by an entry give the natural chain unless they say otherwise; changes in a name come on top.
UniProt S8F4K6: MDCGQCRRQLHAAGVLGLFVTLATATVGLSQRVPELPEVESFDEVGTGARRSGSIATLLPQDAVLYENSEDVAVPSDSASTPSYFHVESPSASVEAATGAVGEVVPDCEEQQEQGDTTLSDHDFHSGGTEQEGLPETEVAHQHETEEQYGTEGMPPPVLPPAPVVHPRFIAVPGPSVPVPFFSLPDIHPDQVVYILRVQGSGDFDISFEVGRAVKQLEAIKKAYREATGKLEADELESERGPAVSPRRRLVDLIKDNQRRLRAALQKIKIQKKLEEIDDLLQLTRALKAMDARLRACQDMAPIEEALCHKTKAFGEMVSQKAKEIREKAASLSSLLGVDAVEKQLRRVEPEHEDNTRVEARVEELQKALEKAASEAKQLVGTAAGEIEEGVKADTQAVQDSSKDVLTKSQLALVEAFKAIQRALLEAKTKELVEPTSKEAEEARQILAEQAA

Molecular target: T1, BPK1-BirA* (Toxoplasma gondii)
T1 sequence: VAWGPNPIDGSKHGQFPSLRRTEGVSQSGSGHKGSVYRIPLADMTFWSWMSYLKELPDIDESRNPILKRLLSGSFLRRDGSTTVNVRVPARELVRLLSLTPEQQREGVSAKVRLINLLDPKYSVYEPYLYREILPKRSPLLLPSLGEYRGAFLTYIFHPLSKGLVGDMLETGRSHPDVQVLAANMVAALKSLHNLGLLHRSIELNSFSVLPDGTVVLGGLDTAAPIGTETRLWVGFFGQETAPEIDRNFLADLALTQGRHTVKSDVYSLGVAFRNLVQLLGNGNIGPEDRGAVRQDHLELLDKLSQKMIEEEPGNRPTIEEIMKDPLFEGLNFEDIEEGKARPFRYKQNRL
Assay: proximity labelling; BioID, group 1 baits (BirA*-3xHA at the C terminus) in Pru bradyzoites in HFF cells, 3 days pH 8.2 medium with 150 uM biotin; RIPA lysate, streptavidin agarose overnight at 4°C, RIPA and 8 M urea washes, LC-MS/MS; proteins of the untagged Pru sample filtered out; duplicates pooled

Question: MAG1 (from UniProt S8F4K6) was tested. Which binding did it give?
Answer: no binding

B1: GRA7 (protein, UniProt O00933 27-236)
chain: ATASDDELMSRIRNSDFFDGQAPVDSLRPTNAGVDSKGTDDHLTTSMDKASVESQLPRREPLETEPDEQEEVHFRKRGVRSDAEVTDDNIYEEHTDRKVVPRKSEGKRSFKDLLKKLALPAVGMGASYFAADRLVPELTEEQQRGDEPLTTGQNVGTVLGFAALAAAAAFLGMGLTRTYRHFSPRKNRSRQPALEQEVPESGEDGEDARQ
Question: B1 was tested. Which binding did it give?
Answer: no binding
